Data on 42 sequences can be found in publication PMC7819943, “Rice protein-binding microarrays: a tool to detect cis-acting elements near promoter regions in rice”.

Chains of the proteins cited; added tags and fusions are not shown.
UniProt Q0JBA9, entry or part of it: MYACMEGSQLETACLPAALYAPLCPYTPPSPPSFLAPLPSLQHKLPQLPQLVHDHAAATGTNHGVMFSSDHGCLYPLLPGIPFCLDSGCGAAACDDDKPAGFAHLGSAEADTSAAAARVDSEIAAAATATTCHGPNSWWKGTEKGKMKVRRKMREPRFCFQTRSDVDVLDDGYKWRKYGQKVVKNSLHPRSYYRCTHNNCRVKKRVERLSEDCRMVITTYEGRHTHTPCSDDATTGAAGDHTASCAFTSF

Some of the results follow.

For the experiment, the target named is OsWRKY34 (Oryza sativa, UniProt Q0JBA9 1-250). Description: protein-binding microarray (RPBM); PBS, 2% BSA, 51.3 ng/ul salmon testes DNA, 50 uM zinc acetate, 200 nM TF, 25 C, 1 h; high values mean tight binding. Conditions: protein: recombinant; tags: N-terminal polyhistidine and DsRed monomer fusion (pET32a); label: CyDye5-dUTP incorporated in the synthesized complementary strand; 3' TTTTT single-stranded linker to array surface; dsDNA, one strand shown. The method, boiled down: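 In PBS with 2% BSA, salmon testes DNA and 50 µM zinc acetate, 200 nM protein was incubated on a custom Agilent array at 25 °C for 1 h and then washed off. The array had been made double-stranded by primer extension with Cy5-dUTP and blocked with 2% BSA. The proteins were transcription factors fused N-terminally to polyhistidine and DsRed, expressed in E. coli BL21-CodonPlus and purified on Ni–NTA. The binding signal is per-feature fluorescence intensity (arbitrary units) from an Axon 4000B scanner.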
As to “AATTGCTACTCAGGTCTACTTGCCTTCCCCACATCCACTCCGGAGTCACCTAGTGCAG”, the binding signal was 9320 fluorescence intensity (a.u.).
To “TTTCCTCATTTATTCACTTGCCACATCATTTTTCATTCTACGGAGTCACCTAGTGCAG” belongs 8060 fluorescence intensity (a.u.); to “TTAGGTAGCAAACTGCATCATGTCGATCATTCCATTGCGCCGGAGTCACCTAGTGCAG”, 8610 fluorescence intensity (a.u.).
For the sequence “ATCTCCCTCGTTTTCTGCGCGCACACTTTTCAAACTGCTACGGAGTCACCTAGTGCAG”, the binding signal is 8720 fluorescence intensity (a.u.).
“AAGTGAGTTTAGGGGTACACATTTCTGGTTTTGTGGTTAACGGAGTCACCTAGTGCAG”: the binding signal was 8410 fluorescence intensity (a.u.).
The same measure for “ACTCTCTCCGTCCTTAAATATTTGACGCCGTTGACTTTTTCGGAGTCACCTAGTGCAG”: 30600 fluorescence intensity (a.u.).
The same measure for “ACGTCGATCTCCGCCTCCTCAAAACCTTCTCGCCACGACGCGGAGTCACCTAGTGCAG”: 9620 fluorescence intensity (a.u.); for “CACACACACACTCTCTCTCCTCTCTTTCTCGCCCGTTTCCCGGAGTCACCTAGTGCAG”: 8780 fluorescence intensity (a.u.).
The same measure for “AACTATTTTTACAAATGAACCGCTGCCAAAACTTATTTCACGGAGTCACCTAGTGCAG”: 8300 fluorescence intensity (a.u.).
For “AGTACTCCGTTTTATTATATTATAAATCGTTTTATTTTTTCGGAGTCACCTAGTGCAG”, the binding signal is 11900 fluorescence intensity (a.u.).
The same measure for “AGCTACTTCTTTCGTTTTATATTATAGGACGCTTTAACTTCGGAGTCACCTAGTGCAG”: 11400 fluorescence intensity (a.u.).
The same measure for “GCGCTTTCGGTTCCTTTCCCCTGTTTGCGCTGTACTTTTCCGGAGTCACCTAGTGCAG”: 12400 fluorescence intensity (a.u.); for “TTTCAGTCTGGTCTTTTCTCTGTACCTATTTCTATTCATTCGGAGTCACCTAGTGCAG”: 14900 fluorescence intensity (a.u.).
The same measure for “GTGCAAAATCTCACTCAACTTACTGCATTGCTTCTCCAGACGGAGTCACCTAGTGCAG”: 9350 fluorescence intensity (a.u.).
Regarding “CTTTCCAATTTGTTTAATTACCTGCTAACTTTGCTGCATCCGGAGTCACCTAGTGCAG”, the binding signal is 10500 fluorescence intensity (a.u.).
To “CCACATCACGTGTGTGGGTTGCGTGGGTTGGGCTGGCAAACGGAGTCACCTAGTGCAG” belongs 10800 fluorescence intensity (a.u.).
Regarding “TAACTAATTTTGACCGGGTAGCATATAGTTTTGGGCTTTTCGGAGTCACCTAGTGCAG”, the binding signal was 8220 fluorescence intensity (a.u.).
Take “ACAAGATTGTTTTTTATCACTTTTTTTCTCCTCATTATTCCGGAGTCACCTAGTGCAG”: the binding signal is 8810 fluorescence intensity (a.u.).
The same measure for “ATCCGTCCATCCTCCATCCGATGGCCGATAAGCCGTCCACCGGAGTCACCTAGTGCAG”: 8060 fluorescence intensity (a.u.).
In the case of “CGCCGTCTCCACCGCACCCTCGCCCTCACCGCCGGCTCAACGGAGTCACCTAGTGCAG”, the binding signal was 8960 fluorescence intensity (a.u.).
To “GTTTGCGTGATTCTTTTCTGGTTGCCAATTTGGATATCTTCGGAGTCACCTAGTGCAG” belongs 8460 fluorescence intensity (a.u.); to “TTCTAGCCCATTCTCCGCTGTTGTGCTTTCTTCGTTTGATCGGAGTCACCTAGTGCAG”, 11000 fluorescence intensity (a.u.).
To “CCATCTTCACCGTCTTGCCATATGGGACTCCCCATGACCACGGAGTCACCTAGTGCAG” belongs 10500 fluorescence intensity (a.u.); to “ACAATTCACAAACGAACCTCTGCTGTTAGCCGCCTCTTTCCGGAGTCACCTAGTGCAG”, 8190 fluorescence intensity (a.u.).
The same measure for “ACTCTTTTGAACCTAGGGTCATTCTCGTATTTTTAAAGAACGGAGTCACCTAGTGCAG”: 14000 fluorescence intensity (a.u.); for “TTATTTTTCGTTCCTTCTTTTTTTCTCTCTCACTTTTCTCCGGAGTCACCTAGTGCAG”: 11300 fluorescence intensity (a.u.); for “GCCGCCGCCGTTGCCCGCGCAGCGCATTCTCCATTCCCTTCGGAGTCACCTAGTGCAG”: 8360 fluorescence intensity (a.u.).
“TTCTGGATCCGCCACTCTCGTGCGTATTTGGGCTAAAAAACGGAGTCACCTAGTGCAG”: the binding signal was 8780 fluorescence intensity (a.u.).
To “ACCCGGTCCAAATCCACCTACTACTGTTTTTCTTTTGTCCCGGAGTCACCTAGTGCAG” belongs 10800 fluorescence intensity (a.u.).
The same measure for “TCCACCTCACCCAACCTTGCCACGTCACTCCATCACAACCCGGAGTCACCTAGTGCAG”: 11200 fluorescence intensity (a.u.).
To “GCTGTCTCTATCCGGGCTGATAAGAACCGAGGGAGTGTGACGGAGTCACCTAGTGCAG” belongs 8200 fluorescence intensity (a.u.).
Turning to “AATTTTTATTGTGATGTCTTATTGACATGGTACCATATACCGGAGTCACCTAGTGCAG”, the binding signal was 8250 fluorescence intensity (a.u.).
To “GGCAGGCAGGCAGTCGTTCATCCACATCCACCGCCGCCGTCGGAGTCACCTAGTGCAG” belongs 11500 fluorescence intensity (a.u.); to “CTCCTCTTCCTGCTGCTCTCTCGCTCTCGTTGGATTCGGTCGGAGTCACCTAGTGCAG”, 9620 fluorescence intensity (a.u.).
The same measure for “ACCACTATCACACAGTGGGATCGCTTACGTCATATACTTTCGGAGTCACCTAGTGCAG”: 11100 fluorescence intensity (a.u.).
The same measure for “CATTTTGCTGTCATTATTTCTTCGGGATTGAAGTTCCATCCGGAGTCACCTAGTGCAG”: 8970 fluorescence intensity (a.u.); for “CATCCATTTCCCTTTCCCAGTCCCATCTCTCATATCCCATCGGAGTCACCTAGTGCAG”: 8030 fluorescence intensity (a.u.).
As for “CGCCACGGTCGCGCCTTCTTTGTCTCTCCCTTGTTTTTTTCGGAGTCACCTAGTGCAG”, the binding signal was 9920 fluorescence intensity (a.u.).
To “ATTCCTTAGCATGTCACCCTCCTCCTCATCTCACCACACACGGAGTCACCTAGTGCAG” belongs 8370 fluorescence intensity (a.u.); to “CCGCCTCTGTCTATTTTGGCATTATCCACCGTTAATCATACGGAGTCACCTAGTGCAG”, 11200 fluorescence intensity (a.u.); to “CCTATTTAACACCGCCTCGTCGCTCTCTCCTTCCTCATCACGGAGTCACCTAGTGCAG”, 8960 fluorescence intensity (a.u.).
To “TTATTTGCTTGCTTGTCTGCCTACTGTCCAGTGACTGACCCGGAGTCACCTAGTGCAG” belongs 9500 fluorescence intensity (a.u.).
